Source: paper PMC6514849

Sequences of proteins named here, by UniProt entry; tags and fusion partners are left off. A change or cut given only in a name is not applied to a line headed by its entry.
UniProt P10275: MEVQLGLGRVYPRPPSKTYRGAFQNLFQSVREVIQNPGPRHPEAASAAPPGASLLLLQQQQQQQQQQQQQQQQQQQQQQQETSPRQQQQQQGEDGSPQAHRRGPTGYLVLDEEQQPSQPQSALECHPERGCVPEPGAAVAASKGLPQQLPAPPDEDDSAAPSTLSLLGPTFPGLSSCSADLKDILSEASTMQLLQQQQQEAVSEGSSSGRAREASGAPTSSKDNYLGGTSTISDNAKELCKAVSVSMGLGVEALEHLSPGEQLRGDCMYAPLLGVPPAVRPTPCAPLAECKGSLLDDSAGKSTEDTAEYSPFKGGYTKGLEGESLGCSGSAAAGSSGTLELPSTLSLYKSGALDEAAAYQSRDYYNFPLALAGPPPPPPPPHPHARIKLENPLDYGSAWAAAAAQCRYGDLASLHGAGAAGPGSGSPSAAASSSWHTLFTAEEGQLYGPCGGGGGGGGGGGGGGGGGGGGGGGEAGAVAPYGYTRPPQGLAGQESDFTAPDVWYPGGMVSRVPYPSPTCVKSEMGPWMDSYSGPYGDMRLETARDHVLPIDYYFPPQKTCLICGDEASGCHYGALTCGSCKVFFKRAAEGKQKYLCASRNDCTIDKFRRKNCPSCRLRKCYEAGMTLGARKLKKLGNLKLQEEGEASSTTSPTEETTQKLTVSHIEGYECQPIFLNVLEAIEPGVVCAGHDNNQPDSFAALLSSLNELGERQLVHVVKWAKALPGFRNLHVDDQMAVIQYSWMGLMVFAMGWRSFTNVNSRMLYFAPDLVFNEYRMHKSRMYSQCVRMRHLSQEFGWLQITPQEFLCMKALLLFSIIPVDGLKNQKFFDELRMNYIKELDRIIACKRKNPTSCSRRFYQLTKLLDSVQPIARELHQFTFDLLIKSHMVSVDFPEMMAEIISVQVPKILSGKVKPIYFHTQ

Biological target: GST-tagged AR amino terminal domain (AR^NTD) (human) (UniProt P10275)
Experiment: pull-down; GST pull-down: GST-tagged AR domains incubated with recombinant PBK (50 pmoles) for 2 h; PBK detected by immunoblotting with an anti-PBK antibody; AR-DBD-LBD expressed, purified and incubated ± 50 μM DHT (n = 2–5); both purified

binding: binds
B1: recombinant PBK (enzyme, UniProt Q96KB5 1-322)
chain: MEGISNFKTPSKLSEKKKSVLCSTPTINIPASPFMQKLGFGTGVNVYLMKRSPRGLSHSPWAVKKINPICNDHYRSVYQKRLMDEAKILKSLHHPNIVGYRAFTEANDGSLCLAMEYGGEKSLNDLIEERYKASQDPFPAAIILKVALNMARGLKYLHQEKKLLHGDIKSSNVVIKGDFETIKICDVGVSLPLDENMTVTDPEACYIGTEPWKPKEAVEENGVITDKADIFAFGLTLWEMMTLSIPHINLSNDDDDEDKTFDESDFDDEAYYAALGTRPPINMEELDESYQKVIELFSVCTNEDPKDRPSAAHIVEALETDV

Results are given in words; binding and its absence hold for the method and conditions named. A result given as binding can be weak or reduced; the word gives no strength.
